Results from article PMC8700025.
No constants are given. Whether binding was seen depends on the method and setting. In cells and extracts the contact can be indirect. Binding calls can cover weak binding; strength is not graded here.

Target: TgGRA14 endogenously epitope-tagged at the C-terminus with 6x-HA (ME49Δku80 GRA14-HA6x) (Toxoplasma gondii (ME49, type II))
Assay: co-IP; anti-HA immunoprecipitation from lysates of infected cultures (ME49Δku80 GRA14-HA6x against untagged control), immunoblot of the immunoprecipitation samples

Row | Binder | binding
1 | TgGRA4 (protein, UniProt Q27002 21-345) GECSFGSHLADMAGLSGRHDKERHQAKKRYYHSMYGNQTPYPYANGQQASPPPQGQLLIIQNPDGSFMIVDQQGVPQVPQAAGGPGSPMNGGYYMPTGVYTAQVVPGTPGHPVQAIPQQPLRTQATATYYHPAAVPPPGPSVFVFTPSSVQPGAEVTPGYSGLQLRQQSQYGYSYPGTTSTPTPPPPASYGYPVFPAFPRLPAFSDSVSVSTEDSGLTGVKDSSSSESTVTPADEAASESEEGDKTSRKSKVKKGILTGLGVAATLAAAAAAAKAVKGFGGTRTSTAPAEAGKTELDDGYRPPPFNPRPSPYAELLKDLERMRKE | binds
2 | TgGRA1 (protein, UniProt P13403 25-190) AEGGDNQSSAVSDRASLFGLLSGGTGQGLGIGESVDLEMMGNTYRVERPTGNPDLLKIAIKASDGSYSEVGNVNVEEVIDTMKSMQRDEDIFLRALNKGETVEEAIEDVAQAEGLNSEQTLQLEDAVSAVASVVQDEMKVIDDVQQLEKDKQQLKDDIGFLTGERE | binds
